# Measurements taken from the supplement of paper PMC3334620.
# Whole data set: some 33,000 sequences, median “E-score (-0.5 to 0.5)” near -0.0014, cut for the highest 2% near 0.25. The list shows a part of the results.
# Target: T1, Cad1 (UniProt P24813)
# T1 sequence: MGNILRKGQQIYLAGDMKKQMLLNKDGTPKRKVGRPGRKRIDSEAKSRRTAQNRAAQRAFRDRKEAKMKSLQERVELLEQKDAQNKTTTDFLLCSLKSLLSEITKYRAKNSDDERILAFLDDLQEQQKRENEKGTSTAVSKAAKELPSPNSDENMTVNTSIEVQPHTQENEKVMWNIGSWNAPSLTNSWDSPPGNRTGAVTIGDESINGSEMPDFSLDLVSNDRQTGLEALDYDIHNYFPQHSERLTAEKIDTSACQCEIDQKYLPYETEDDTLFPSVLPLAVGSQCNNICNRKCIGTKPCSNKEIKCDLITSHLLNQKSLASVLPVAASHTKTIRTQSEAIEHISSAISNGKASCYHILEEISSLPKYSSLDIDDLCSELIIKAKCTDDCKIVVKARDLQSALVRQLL
# Assay: PBM E-score (8-mer binding enrichment) (E-score (-0.5 to 0.5)); higher = stronger / more preferred TF binding
# Conditions: protein concentration: 100 nM; construct: GST-full length
# How it was run: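 PURExpress in vitro transcription/translation supplied GST-tagged yeast transcription factors, either full-length or DNA-binding domain. Applied at about 100-200 nM to universal all-10-mer Agilent arrays double-stranded by primer extension, the bound protein was detected with fluorescent anti-GST. E-scores, modified Wilcoxon-Mann-Whitney statistics, were given by the Universal PBM Analysis Suite to ungapped eight-base words pooled with their reverse complements after masliner normalisation.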
row,Sequence,PBM E-score
1,CGAGACAG,-0.0432
2,ATGAGTAG,0.0743
3,AAGCACGC,0.0654
4,GAAAGTTA,0.0648
5,CATGAGCG,0.0942
6,GCCCTAGA,-0.311
7,GACCTATC,-0.0167
8,AATAAACT,0.12
9,AATTTGAT,0.0957
10,CGTCGCTC,-0.0127
11,GGGCCCAC,-0.0728
12,ACCGCTCA,0.00784
13,ATTTCGAC,-0.0837
14,GCAACAGC,-0.076
15,CGGGAGTA,0.0466
16,ACTCGGAA,0.126
17,TATCGGCA,0.00129
18,CCCCAATC,-0.109
19,TTCAGCAA,0.0539
20,ACAACCGC,0.135
21,CGGATAAG,0.0425
22,CGTGGCCC,-0.0558
23,AATCTCGA,0.123
24,ACCATATA,0.144
25,GGGGTGCA,-0.216

# In another format: entries from further up
row	Sequence	PBM E-score
18	CCCCAATC	-0.109
21	CGGATAAG	0.0425

# Following part.

row,Sequence,PBM E-score
1,CGACTGCG,-0.0765
2,GTCATGAC,0.288
3,ACCCTAGT,-0.147
4,CGAAACAA,0.195
5,ACCAAATG,0.0613
6,GCAATCCA,0.0441
7,GAAACTCA,0.123
8,AAGAGCGA,-0.231
9,CCTCCTCA,-0.235
10,AACTGAGT,0.148
11,TCCAGACA,-0.0833
12,GACTTGTA,-0.0735
13,AGCCCAGG,-0.269
14,GAGACGCC,-0.128
15,GTAACTCA,-0.129
16,AGACACGC,-0.182
17,AATGGTAT,0.109
18,CTACCTCC,-0.157
19,AAGGAGGG,-0.0877
20,CAAACGGA,-0.0795
21,ACACTGCG,0.0497
22,ACTGCCCT,-0.0853
23,ACCCATAC,0.00827
24,AAAAAGGC,0.0352
25,AAAGTGCA,0.00528

row,Sequence,PBM E-score
1,ACATAGAT,0.0106
2,CGCGGCGC,0.174
3,ATCGCTGA,0.128
4,CAAGAGAC,-0.0144
5,CCCCACAC,-0.104
6,CCCCTTTC,-0.157
7,TCACCGGA,-0.0337
8,GGAGAAAC,-0.122
9,ATGTGATG,-0.00561
10,ATCAAAGC,0.0843
11,TCGGCCGA,0.173
12,TAGCTACA,0.129
13,TAGCGAAA,0.0641
14,ACAGCTGT,0.261
15,AACACAGA,0.19
16,GAATTAAC,0.0768
17,CAGTAGAC,-0.143
18,GGTGGTTA,-0.0875
19,CTGGTTGC,0.221
20,CACGGCGC,0.0653
21,ACGGCTAT,-0.0988
22,CCGTTGTC,0.172
23,AAAATTGG,0.0189
24,GGGCTCGA,-0.195
25,TAGTCACA,0.102

row,Sequence,PBM E-score
1,CTAAGGAG,-0.138
2,CCCGTATC,-0.15
3,GCCGGAAA,0.156
4,GAGCCTCA,-0.127
5,GGTTGCAC,0.0639
6,AGCTGGCC,-0.0868
7,GATAGGGC,-0.0803
8,GCGATTTA,0.156
9,AAAGGAAT,-0.126
10,CATCCTAC,-0.171
11,AGCCACTG,-0.0671
12,GAATCTAA,0.159
13,CCCCCGAA,-0.307
14,CCTCTCTA,-0.306
15,CTCTTGTA,-0.174
16,GGCACGGA,0.00063
17,CTCCATAC,-0.104
18,ACACTAGG,-0.0208
19,GACGCTTA,0.0345
20,AAAACCAC,-0.106
21,GCGCGTGA,0.202
22,GGGTACAC,-0.139
23,CCCAAGCA,-0.107
24,CATACAGC,-0.078
25,GAAGCTCC,-0.0686

row,Sequence,PBM E-score
1,GCCACGGC,-0.0123
2,AGTCGTAA,-0.0181
3,GGGAGCAA,-0.244
4,GCTCCAGC,-0.109
5,ATGAGCTC,-0.0302
6,CAATACTC,0.126
7,CGATGGGC,-0.0192
8,CTCTGTTC,-0.0927
9,CTAGAAAA,-0.0993
10,CACGCGGC,0.0714
11,GGTAAAAA,0.203
12,GCTAAAGA,0.155
13,TATCCAAA,0.248
14,TCTGATAA,-0.0338
15,AAGGACAC,-0.123
16,ACTGTCGC,-0.0989
17,GTGCCTCA,-0.376
18,GGTGGAAA,-0.106
19,CACAAAGA,0.028
20,GGCTTCGA,0.0167
21,GATTCCAC,0.0593
22,AGGACCAC,-0.0559
23,ACGTAGAT,0.14
24,GTCCTTTA,-0.157
25,ACCTCGTC,0.0714

# Some values from above:
# AGTCGTAA – PBM E-score: -0.0181
# CGATGGGC – PBM E-score: -0.0192
# GATTCCAC – PBM E-score: 0.0593
# GGTGGAAA – PBM E-score: -0.106
# TATCCAAA – PBM E-score: 0.248
# GCCACGGC – PBM E-score: -0.0123
# ACCTCGTC – PBM E-score: 0.0714

# Later entries

row,Sequence,PBM E-score
1,GGCGGGAC,-0.023
2,CGCGCCAG,0.0872
3,AAAGATTC,0.108
4,AAGGTGAC,-0.00908
5,GTCGCAAC,0.017
6,CTAACATA,0.148
7,GGATAATA,0.113
8,AGAACGAG,0.0921
9,TCCAGGCA,0.101
10,CGATGTCA,0.00762
11,AACGCTAG,-0.178
12,CCATCATC,-0.0155
13,ACGTCTCT,-0.0622
14,CGTCCAAC,-0.0761
15,ACCGCGTG,0.0838
16,CTAGGCTC,-0.239
17,ATATATAT,0.295
18,GCTCACAA,0.205
19,ATATCAAC,0.253
20,AAATATCT,0.114
21,CAGCATGA,-0.0607
22,ACCGGGTA,-0.0141
23,AAGACACA,-0.109
24,GTCCCGAA,-0.128
25,ATAGTATG,0.074

row,Sequence,PBM E-score
1,ATAACCTC,0.0774
2,CAGTGTAG,0.0795
3,ACTTACGA,0.184
4,AGGGTGGA,-0.0446
5,CGGGAAGC,-0.0112
6,GGAACTAC,-0.0515
7,GAAAAACA,-0.0722
8,CCCTGGCA,-0.0951
9,TAGGAGGA,-0.212
10,ACCTCAAA,-0.0553
11,CACCCGCC,0.0605
12,AACACCCC,0.119
13,CTTACGGC,-0.195
14,AAACCGGA,0.0985
15,CCGTCCTC,-0.193
16,AACCTTTA,-0.102
17,GCTTTGCA,-0.127
18,CTGGCGCA,-0.228
19,AGAGTTAT,0.0358
20,GACGAGTA,0.0138
21,GACACAGC,0.0664
22,CCCCCGCC,-0.45
